From patent JP2018158894A come the findings set out here.

These are yes or no findings as the source states them, for the method shown. Binding calls can cover weak binding; strength is not graded here.

In assay [1] the target is LGR6 486-527 recombinant fragment (pET32b tag fusion). Description: Ag-ELISA, 50 ng fragment per well, m164 at 1 μg/ml.
Assay [2] has the same target. As to the kind of experiment: Ag-ELISA on recombinant fragments, absorbance minus blank (legend of Figure 2).

B1: m164抗体 (anti-LGR6 mouse monoclonal antibody produced by hybridoma clone 164) (antibody, V domains shown)
VH: EVQLQQSGPELVKPGASVKISCKTSGYTFTEYTMHWVKQSHGKSLEWIGGINPYNRVSSYNQRFKGKATLTVDKSSSTAYMELRSLTSEDSAVYYCARRYDVFDSWGQGTTLTVSS
VL: DIVMSQSPSSLAVSVGEKVSMSCKSSQSLLYSSNQKNYLAWYQQKPGQSPKLLISWASTRESGVPARFTGSGSGTDFTLTISSVRAEDLAVYYCQQHFNYPYTFGGGAKLEMK
As to B1, the binding result in assay [1] and in assay [2] was “binds” throughout.
